Values from PubChem BioAssay AID1259327 (Drosophila RNAi Screening Center, 2017)

Assay: 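Knock-downs altering cellular ATP with no metal added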
Cells: Drosophila S2R+ cells
Reagents: long dsRNA against Drosophila genes
Timing: 5 days (water added on day 4, read one day later)
Challenge: water added as vehicle, no metal, one day before read-out
Measurement: 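Luciferase ATP signal per well, normalised to plate mean, duplicate average converted to z-score across plates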
Scale: ATP z-score: higher = more total ATP than typical wells; ATP luminescence: higher = more total ATP
Active means: 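Called active when the ATP z-score exceeds 1.5 or falls below -1.5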
Meaning of the calls: active = hit: ATP up or down; inactive = no clear ATP change
In all, the deposit lists about 3,100 reagents; this is an unselected part. Of all reagents, 378 (12%) got an active call. 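Hits include both directions; z-score sign shows ATP rise or fall; raw luminescence values are not plate-normalised.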 Names joined by + are all predicted targets of the reagent. The record does not give: the amount of reagent.

| target | dsRNA | ATP z-score, duplicate mean | ATP luminescence, replicate 1 (RLU) | ATP luminescence, replicate 2 (RLU) | Call |
| --- | --- | --- | --- | --- | --- |
| CG3702 | DRSC00628 | 0.22 | 4.61e5 | 5.30e5 | inactive |
| CG3702 | DRSC39885 | -1.71 | 3.97e5 | 4.84e5 | active |
| Fas2 | DRSC17308 | 0.0503 | 7.40e5 | 7.57e5 | inactive |
| Fas2 | DRSC17309 | -1.27 | 5.16e5 | 4.93e5 | inactive |
| Fas2 | DRSC18664 | 0.541 | 7.75e5 | 7.48e5 | inactive |
| CG12438 | DRSC02167 | -0.92 | 6.83e5 | 5.75e5 | inactive |
| CG13325 | DRSC06362 | 0.471 | 7.32e5 | 8.32e5 | inactive |
| CG13325 | DRSC24773 | -0.701 | 7.93e5 | 1.01e6 | inactive |
| CG16781 | DRSC18117 | 0.697 | 7.74e5 | 8.39e5 | inactive |
| CG16781 | DRSC28112 | 2.33 | 9.82e5 | 1.11e6 | active |
| CG33234 | DRSC07994 | -1.21 | 5.97e5 | 6.26e5 | inactive |
| CG33234 | DRSC39757 | -0.66 | 3.62e5 | 4.81e5 | inactive |
| ATPsynC | DRSC15236 | -2.48 | 4.08e5 | 4.89e5 | active |
| ATPsynC | DRSC39449 | -1.85 | 3.48e5 | 3.13e5 | active |
| CG9416 | DRSC07339 | 2.11 | 8.46e5 | 7.75e5 | active |
| Task6 | DRSC16530 | 0.487 | 3.14e5 | 8.33e5 | inactive |
| Task6 | DRSC39545 | -1.74 | 3.74e5 | 3.04e5 | active |
| Or67d | DRSC10158 | -0.799 | 7.79e5 | 8.02e5 | inactive |
| Or67d | DRSC39518 | -1.02 | 4.45e5 | 3.30e5 | inactive |
| CG42514 + CG43373 | DRSC26599 | 0.102 | 8.92e5 | 1.01e6 | inactive |
| CNT1 | DRSC06082 | 0.538 | 5.35e5 | 8.02e5 | inactive |
| CNT1 | DRSC29671 | -0.609 | 7.73e5 | 7.28e5 | inactive |
| nAChRbeta3 | DRSC00325 | -0.995 | 4.23e5 | 3.95e5 | inactive |
| tkv | DRSC03623 | -1.28 | 4.07e5 | 3.70e5 | inactive |
| tkv | DRSC22606 | 0.221 | 6.19e5 | 5.78e5 | inactive |
| tkv | DRSC25957 | -0.873 | 6.76e5 | 8.08e5 | inactive |
| Tmc | DRSC10356 | 0.134 | 9.48e5 | 8.81e5 | inactive |
| CG15406 | DRSC00420 | -1.08 | 6.23e5 | 5.67e5 | inactive |
| CG15406 | DRSC28108 | -1.68 | 9.46e5 | 1.09e6 | active |
| NaPi-III | DRSC10893 | -0.707 | 6.66e5 | 6.45e5 | inactive |
| NaPi-III | DRSC28299 | 0.372 | 9.01e5 | 8.36e5 | inactive |
| CG7149 | DRSC03016 | -0.839 | 4.56e5 | 3.81e5 | inactive |
| CG7149 | DRSC39817 | -1.62 | 3.73e5 | 3.57e5 | active |
| CadN | DRSC03286 | -0.885 | 6.44e5 | 6.20e5 | inactive |
| CadN | DRSC27368 | -1.2 | 7.86e5 | 9.24e5 | inactive |
| Yip1d1 | DRSC02166 | -0.528 | 6.74e5 | 6.67e5 | inactive |
| CG10413 | DRSC02052 | 0.539 | 5.60e5 | 4.70e5 | inactive |
| ZnT86D | DRSC16091 | -0.513 | 2.91e5 | 6.68e5 | inactive |
| CG8219 | DRSC10971 | -0.373 | 8.68e5 | 8.26e5 | inactive |
| CG8219 | DRSC24577 | 0.134 | 8.67e5 | 8.67e5 | inactive |
| boi | DRSC18425 | -0.344 | 6.84e5 | 7.92e5 | inactive |
| boi | DRSC25851 | 0.422 | 9.05e5 | 9.00e5 | inactive |
| rumpel | DRSC18436 | 1.69 | 6.94e5 | 7.59e5 | active |
| rumpel | DRSC39504 | -2.25 | 3.27e5 | 2.83e5 | active |
| Or22c | DRSC00766 | -0.984 | 6.39e5 | 5.71e5 | inactive |
| Or22c | DRSC26292 | -1.13 | 8.86e5 | 1.05e6 | inactive |
| Toll-6 | DRSC11304 | 0.401 | 9.16e5 | 9.79e5 | inactive |
| Toll-6 | DRSC39854 | 1.79 | 6.54e5 | 5.51e5 | active |
| SMSr | DRSC10999 | -0.313 | 8.82e5 | 8.29e5 | inactive |
| Rdl | DRSC11264 | 0.465 | 7.80e5 | 7.81e5 | inactive |
| Rdl | DRSC27696 | 0.709 | 9.77e5 | 8.73e5 | inactive |
| CG13907 | DRSC08377 | 0.574 | 7.79e5 | 8.06e5 | inactive |
| CG13907 | DRSC25983 | -0.0521 | 8.18e5 | 8.70e5 | inactive |
| Ca-Ma2d | DRSC29730 | 2.26 | 7.47e5 | 7.96e5 | active |
| ATP6AP2 | DRSC16420 | -0.178 | 2.84e5 | 7.60e5 | inactive |
| ATP6AP2 | DRSC39882 | -0.0639 | 5.68e5 | 5.91e5 | inactive |
| CG7888 | DRSC10926 | 0.245 | 7.46e5 | 7.68e5 | inactive |
| CG7888 | DRSC39855 | 0.278 | 4.92e5 | 5.05e5 | inactive |
| CG45067 + CG45066 | DRSC08414 | 0.0892 | 8.99e5 | 9.15e5 | inactive |
| CG45067 + CG45066 | DRSC27186 | -1.1 | 9.20e5 | 9.68e5 | inactive |
| VAChT + ChAT | DRSC13312 | 1.04 | 3.54e5 | 8.54e5 | inactive |
| PGRP-LD + Pmi | DRSC10512 | -0.461 | 6.26e5 | 7.32e5 | inactive |
| CG33282 | DRSC00422 | -0.398 | 6.86e5 | 6.44e5 | inactive |
| CG33282 | DRSC39731 | -1.4 | 3.58e5 | 3.82e5 | inactive |
| CG11426 | DRSC11658 | 0.145 | 9.56e5 | 8.76e5 | inactive |
| CG11426 | DRSC27815 | 0.548 | 9.61e5 | 9.92e5 | inactive |
| CG11426 | DRSC37070 | 1.55 | 6.05e5 | 8.19e5 | active |
| CG6231 | DRSC15997 | -0.356 | 2.83e5 | 7.23e5 | inactive |

3 neighbouring records from above, quoted:
| target | dsRNA | ATP z-score, duplicate mean | ATP luminescence, replicate 1 (RLU) | ATP luminescence, replicate 2 (RLU) | Call |
| --- | --- | --- | --- | --- | --- |
| CG7149 | DRSC03016 | -0.839 | 4.56e5 | 3.81e5 | inactive |
| CG7149 | DRSC39817 | -1.62 | 3.73e5 | 3.57e5 | active |
| CadN | DRSC03286 | -0.885 | 6.44e5 | 6.20e5 | inactive |
